# Experimental data published in article PMC5572722, “Dimerization in tailoring uptake efficacy of the HSV-1 derived membranotropic peptide gH625” (Scientific Reports, 2017).
# Positions of bridges follow the written chain, without caps; N, C: chain ends. Residues, ends and D or L forms follow the SMILES beside them. Chains are numbered I, II in the order given. No end group written: not given here.
# Experiments:
# [1] = Membrane fluidity, Laurdan generalized polarization (GP); conditions: Laurdan in DOPG/Chol 60/40 LUVs with peptide, 25 °C, P/L molar ratio 0.05, 10 min after addition, 5 mM HEPES 100 mM NaCl pH 7.4; no peptide GP 0.36
# [2] = as above; conditions: Laurdan in DOPG LUVs with peptide, 25 °C, P/L molar ratio 0.05, 10 min after addition, 5 mM HEPES 100 mM NaCl pH 7.4; no peptide GP 0.13
# [3] = as above; conditions: Laurdan in DOPC/Chol 60/40 LUVs with peptide, 25 °C, P/L molar ratio 0.05, 10 min after addition, 5 mM HEPES 100 mM NaCl pH 7.4; no peptide GP 0.27
# [4] = Quenching of tryptophan by acrylamide (Stern-Volmer); conditions: acrylamide quenching of Trp, peptide 4 μM, excitation 295 nm, emission 340 nm; for Stern-Volmer quenching constant Ksv in DOPG/Chol: in DOPG/Chol 60/40 LUVs; for Stern-Volmer quenching constant Ksv in buffer: no LUVs
# [5] = GUV image analysis, shape descriptors (light sheet fluorescence microscopy); conditions: GUVs DOPG/Chol 60/40, triplicate; for Mean circularity of GUVs after peptide treatment: Circularity = 4π×Area/Perimeter^2, GUVs alone 0.12, at least 2500 GUV per sample; for Mean roundness of GUVs after peptide treatment: Roundness = 4×Area/π×Major axis^2, GUVs alone 0.66
# Text: GUVs appear dark against the background as a consequence of the difference in refractive index of GUVs contents (sucrose solution) and the surrounding medium (glucose solution). A white halo appears around the vesicle. Formation of pores and of protuberances may be thus evidenced. GUVs appear under differential interference contrast (DIC) round shaped with an average smaller area compared to GUVs treated with gH625 (Table 5, Figure 8). […] The addition of gH625-H7 to GUVs produced a similar effect of gH625 with the only difference that it induces an enhancement of the GUVs fusion tendency (Figure 8). gH625 and gH625-H7 enhance the mean area and perimeter of GUVs (Figure 9A,C). […] Main shape descriptor analysis confirms that the addition of gH625 or gH625-H7 induces an increase in area and perimeter also indicating a decrease in circularity and roundness parameters (Table 5).
# LUVs and SUVs for fluorescence,circular dichroism and surface plasmon resonance, consisting of DOPG, DOPG/Chol (60/40 mol/mol), DOPC/Chol (60/40 mol/mol), and when necessary containing Rho-PE and NBD-PE, or ANTS and DPX, were prepared in 5 mM HEPES, 100 mM NaCl, pH 7.4[66]. Aliquots containing the necessary amount of lipids were dried from a chloroform solution with a nitrogen gas stream and lyophilized overnight to produce dry lipid films which were then resuspended in buffer and vortexed for 1 h; the lipid suspension was freeze-thawed 6 times to obtain multilamellar vesicles (MLV). […] Lipid concentrations of liposome suspensions were determined by phosphate analysis. […]
# GUVs were used upon one day from preparation. Ten microliters of fluorescent GUVs were analyzed (before and after the addition of gH625 or gH625-H7) under a custom made light sheet fluorescent microscope equipped with five laser lines (λ = 375 nm Coherent Cube, λ = 405 nm Coherent Cube, λ = 473 nm Laserworld Blue-200, λ = 532 nm Coherent Compass 215 M-10 DPSS laser and λ = 632.8 nm Thorlabs HRR005S Helium-Neon laser), a motorized microscope MS-2000 XY stage with LX-4000 controller (Applied Scientific Instrumentation), a Focus Drive motorized Z stage (Tofra Inc.) and Nano-F200S nanopositioner controlled by Nanodrive® controller (Mad City Labs); all devices were managed by MicroManager software. […] The emerging fluorescence was detected by the Orca flash 2.8 sCMOS camera (Hamamatsu) driven by Dalsa Xcelera (Teledyne DALSA) PCIe card mounted on AMD FX-8 core 3.5 GHz, 32 Gb RAM pc running Windows 8.1 (Microsoft). […] GUV parameters were calculated by the Analyze particles ImageJ plugin; a minimum size of 5 μm^2 and circularity of at least […] Circularity=4π×[Area]/[Perimeter]^2 with a value of 1.0 indicating a perfect circle) was considered. […]
Compound,generalized polarization (GP) value [1],generalized polarization (GP) value [2],generalized polarization (GP) value [3],Stern-Volmer quenching constant Ksv in DOPG/Chol [4],Stern-Volmer quenching constant Ksv in buffer [4],Mean circularity of GUVs after peptide treatment [5],Mean roundness of GUVs after peptide treatment [5]
CC[C@H](C)[C@H](NC(=O)[C@H](CC(C)C)NC(=O)[C@H](C)NC(=O)[C@H](CC(N)=O)NC(=O)[C@H](Cc1ccc(O)cc1)NC(=O)[C@H](Cc1c[nH]cn1)NC(=O)[C@H](C)NC(=O)[C@H](Cc1c[nH]c2ccccc12)NC(=O)[C@H](CCCNC(=N)N)NC(=O)[C@@H](NC(=O)[C@H](CC(C)C)NC(=O)[C@@H](NC(=O)[C@H](CO)NC(=O)[C@H](C)NC(=O)[C@H](CC(C)C)NC(=O)CNC(=O)[C@@H](N)Cc1c[nH]cn1)[C@@H](C)O)[C@@H](C)O)C(=O)N[C@@H](CCCNC(=N)N)C(=O)N[C@@H](C)C(=O)N[C@@H](Cc1ccccc1)C(N)=O [gH625] (H-HGLASTLTRWAHYNALIRAF-NH2),0.36,0.10,0.28,8.07 ± 0.38 M⁻¹,10.81 ± 0.18 M⁻¹,0.11,0.59
CC[C@H](C)[C@H](NC(=O)[C@H](CC(C)C)NC(=O)[C@H](C)NC(=O)[C@H](CC(N)=O)NC(=O)[C@H](Cc1ccc(O)cc1)NC(=O)[C@H](Cc1c[nH]cn1)NC(=O)[C@H](C)NC(=O)[C@H](Cc1c[nH]c2ccccc12)NC(=O)[C@H](CCCNC(=N)N)NC(=O)[C@@H](NC(=O)[C@H](CC(C)C)NC(=O)[C@@H](NC(=O)[C@H](CO)NC(=O)[C@H](C)NC(=O)[C@H](CC(C)C)NC(=O)CNC(=O)[C@@H](N)Cc1c[nH]cn1)[C@@H](C)O)[C@@H](C)O)C(=O)N[C@@H](CCCNC(=N)N)C(=O)N[C@@H](C)C(=O)N[C@@H](Cc1ccccc1)C(=O)NCC(=O)NCC(=O)NCC(=O)N[C@@H](CCCCN)C(=O)N[C@@H](CCCCN)C(=O)N[C@@H](CCCCN)C(=O)N[C@@H](CCCCN)C(N)=O [gH625-G7] (H-HGLASTLTRWAHYNALIRAFGGGKKKK-NH2),0.40,0.11,0.29,4.74 ± 0.12 M⁻¹,12.21 ± 0.16 M⁻¹,,
I: HGLASTLTRWAHYNALIRAFGCGKKKK-NH2 / II: HGLASTLTRWAHYNALIRAFGCGKKKK-NH2 (disulfide I:22-II:22) [gH625-H7],0.48,0.18,0.34,3.66 ± 0.09 M⁻¹,13.32 ± 0.38 M⁻¹,0.08,0.54
